This passage reports binding results from PMC9639322.

By UniProt entry, the sequences of proteins in these tests, tags left out. Residues count along the entry.
UniProt P35916, residues 25-1363: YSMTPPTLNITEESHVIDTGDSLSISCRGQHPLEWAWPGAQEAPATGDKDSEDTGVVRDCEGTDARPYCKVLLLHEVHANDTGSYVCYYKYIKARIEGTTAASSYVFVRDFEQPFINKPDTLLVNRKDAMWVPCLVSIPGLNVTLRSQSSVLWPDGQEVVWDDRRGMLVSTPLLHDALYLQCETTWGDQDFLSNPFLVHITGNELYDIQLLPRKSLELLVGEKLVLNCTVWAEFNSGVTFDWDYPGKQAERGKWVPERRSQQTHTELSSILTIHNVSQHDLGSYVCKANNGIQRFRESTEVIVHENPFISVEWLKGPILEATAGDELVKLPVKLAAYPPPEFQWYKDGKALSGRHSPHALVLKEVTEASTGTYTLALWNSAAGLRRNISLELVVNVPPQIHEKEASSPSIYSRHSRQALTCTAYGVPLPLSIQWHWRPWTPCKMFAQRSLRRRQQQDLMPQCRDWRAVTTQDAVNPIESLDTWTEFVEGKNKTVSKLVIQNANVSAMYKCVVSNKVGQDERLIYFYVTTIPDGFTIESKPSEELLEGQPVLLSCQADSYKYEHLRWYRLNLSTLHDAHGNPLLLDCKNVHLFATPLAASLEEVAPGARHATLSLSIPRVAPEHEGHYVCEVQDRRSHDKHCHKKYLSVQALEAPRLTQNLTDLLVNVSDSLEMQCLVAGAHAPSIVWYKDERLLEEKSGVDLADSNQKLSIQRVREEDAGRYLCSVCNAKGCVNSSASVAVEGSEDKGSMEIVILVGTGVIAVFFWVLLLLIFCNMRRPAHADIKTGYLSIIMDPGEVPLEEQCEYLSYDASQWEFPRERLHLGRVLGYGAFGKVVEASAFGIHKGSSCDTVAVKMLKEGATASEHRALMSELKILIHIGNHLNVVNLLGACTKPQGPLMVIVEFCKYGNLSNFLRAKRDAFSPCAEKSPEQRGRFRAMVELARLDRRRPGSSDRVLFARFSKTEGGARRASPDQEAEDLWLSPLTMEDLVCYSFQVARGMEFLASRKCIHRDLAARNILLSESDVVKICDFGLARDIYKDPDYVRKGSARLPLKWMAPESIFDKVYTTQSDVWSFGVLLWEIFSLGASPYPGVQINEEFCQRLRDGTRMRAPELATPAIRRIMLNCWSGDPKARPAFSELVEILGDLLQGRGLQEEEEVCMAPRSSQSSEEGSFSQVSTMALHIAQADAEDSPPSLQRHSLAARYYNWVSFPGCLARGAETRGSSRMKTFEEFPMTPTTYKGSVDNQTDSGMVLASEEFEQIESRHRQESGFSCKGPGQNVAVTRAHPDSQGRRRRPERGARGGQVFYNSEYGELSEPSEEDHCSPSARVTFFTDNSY

Results are given in words; binding and its absence hold for the method and conditions named. In cells and extracts the contact can be indirect. Some results given as binding are weak or reduced against the parent protein; the word gives no strength.

Assay [1] has as its target T1, Dual-specificity phosphatase 19 (human (endogenous in QGP-1)) (UniProt Q8WTR2).
T1 sequence: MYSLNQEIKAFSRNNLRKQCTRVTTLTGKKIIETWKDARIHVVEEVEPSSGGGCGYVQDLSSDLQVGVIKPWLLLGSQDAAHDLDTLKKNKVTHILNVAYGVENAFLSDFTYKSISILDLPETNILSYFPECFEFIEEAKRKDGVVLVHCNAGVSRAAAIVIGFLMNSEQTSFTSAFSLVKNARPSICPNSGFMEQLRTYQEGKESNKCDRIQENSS
The assay is described as follows: co-IP; endogenous proteins in QGP-1 cell lysate (1000 μg cellular protein); anti-VEGFR3 or anti-DUSP19 antibody or mouse IgG overnight at 4 °C; Western blot for VEGFR3 and DUSP19; cells with shLuc, shDUSP19 or shVEGFR3.

Assay [2] addresses Vascular endothelial growth factor receptor 3 (human (endogenous in QGP-1)) (UniProt P35916). The description is as above.

As to “Vascular endothelial growth factor receptor 3 (from UniProt P35916 25-1363)”, in assay [1], the binding entry is reported as “binds”.

B1: Dual-specificity phosphatase 19 (enzyme, UniProt Q8WTR2 1-217)
chain: MYSLNQEIKAFSRNNLRKQCTRVTTLTGKKIIETWKDARIHVVEEVEPSSGGGCGYVQDLSSDLQVGVIKPWLLLGSQDAAHDLDTLKKNKVTHILNVAYGVENAFLSDFTYKSISILDLPETNILSYFPECFEFIEEAKRKDGVVLVHCNAGVSRAAAIVIGFLMNSEQTSFTSAFSLVKNARPSICPNSGFMEQLRTYQEGKESNKCDRIQENSS
B1: in assay [2], the binding result is on record as “binds”.
